The record followed here is publication PMC4444253.

By UniProt entry, the sequences of proteins in these tests, tags left out. Residues count along the entry.
UniProt O00220, residues 24-468: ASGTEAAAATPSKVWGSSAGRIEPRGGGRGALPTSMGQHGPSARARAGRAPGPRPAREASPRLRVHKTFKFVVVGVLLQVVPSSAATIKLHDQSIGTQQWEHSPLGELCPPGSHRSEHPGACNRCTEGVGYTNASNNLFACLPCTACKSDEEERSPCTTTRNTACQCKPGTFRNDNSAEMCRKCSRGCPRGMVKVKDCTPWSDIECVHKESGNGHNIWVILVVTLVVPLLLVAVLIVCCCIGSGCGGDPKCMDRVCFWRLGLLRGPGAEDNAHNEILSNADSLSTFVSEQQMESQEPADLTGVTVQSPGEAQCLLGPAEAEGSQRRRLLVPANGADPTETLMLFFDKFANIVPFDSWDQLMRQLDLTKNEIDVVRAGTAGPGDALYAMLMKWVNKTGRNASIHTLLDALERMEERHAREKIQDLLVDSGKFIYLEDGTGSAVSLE
UniProt O14763, residues 56-440: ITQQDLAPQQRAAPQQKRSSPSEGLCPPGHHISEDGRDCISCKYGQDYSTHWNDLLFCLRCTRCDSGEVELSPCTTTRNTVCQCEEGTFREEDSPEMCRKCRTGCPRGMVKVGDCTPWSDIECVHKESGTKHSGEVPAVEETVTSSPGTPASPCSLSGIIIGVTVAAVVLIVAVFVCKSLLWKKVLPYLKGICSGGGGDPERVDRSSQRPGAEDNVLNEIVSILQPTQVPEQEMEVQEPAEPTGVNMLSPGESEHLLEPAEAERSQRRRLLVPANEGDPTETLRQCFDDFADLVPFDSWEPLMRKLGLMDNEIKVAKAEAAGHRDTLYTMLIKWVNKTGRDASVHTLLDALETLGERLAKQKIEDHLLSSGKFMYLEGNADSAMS
UniProt P15311: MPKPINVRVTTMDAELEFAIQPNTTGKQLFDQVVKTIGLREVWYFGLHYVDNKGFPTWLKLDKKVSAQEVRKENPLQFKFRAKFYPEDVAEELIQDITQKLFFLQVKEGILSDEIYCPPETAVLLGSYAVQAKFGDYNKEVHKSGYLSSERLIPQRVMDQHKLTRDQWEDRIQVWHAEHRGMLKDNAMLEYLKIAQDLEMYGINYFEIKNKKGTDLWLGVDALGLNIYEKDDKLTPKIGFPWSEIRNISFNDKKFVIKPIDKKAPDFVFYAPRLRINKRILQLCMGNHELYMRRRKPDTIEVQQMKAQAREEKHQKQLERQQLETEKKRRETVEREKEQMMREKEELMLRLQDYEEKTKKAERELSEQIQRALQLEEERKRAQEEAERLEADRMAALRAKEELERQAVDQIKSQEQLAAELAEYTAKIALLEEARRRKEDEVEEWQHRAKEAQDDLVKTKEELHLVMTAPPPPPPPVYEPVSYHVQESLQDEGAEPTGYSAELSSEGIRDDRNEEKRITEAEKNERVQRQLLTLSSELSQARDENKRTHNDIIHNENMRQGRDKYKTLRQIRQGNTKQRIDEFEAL

Results are given in words; binding and its absence hold for the method and conditions named. In cells and extracts the contact can be indirect.

Assay [1] concerns the target TRAIL-R1 (human (endogenous in HCT116 and SW480)) (UniProt O00220). Put plainly: co-IP; cells stimulated or not with 5 μg/ml His-TRAIL, lysed in NP40-containing buffer, precleared and immunoprecipitated with 5 μg of anti-TRAIL-R1, anti-TRAIL-R2 or anti-GAPDH antibody; western blot. A general note: Immunoblotting shows a protein as a band on a membrane.
For assay [2], the target named is TRAIL-R2 (human (endogenous in HCT116 and SW480)) (UniProt O14763). The assay is described as above.

With ezrin (from UniProt P15311 1-586), the binding result in assay [1] and in assay [2] was “no binding” in each case.
